Measurements from US20220162322A1.
Results are given in words; binding and its absence hold for the method and conditions named. Some binding calls cover weakened binding; strength is not graded here.

Chains of the proteins cited; added tags and fusions are not shown. Lines headed by an entry give the natural chain unless they say otherwise; changes in a name come on top.
UniProt Q8WTT0: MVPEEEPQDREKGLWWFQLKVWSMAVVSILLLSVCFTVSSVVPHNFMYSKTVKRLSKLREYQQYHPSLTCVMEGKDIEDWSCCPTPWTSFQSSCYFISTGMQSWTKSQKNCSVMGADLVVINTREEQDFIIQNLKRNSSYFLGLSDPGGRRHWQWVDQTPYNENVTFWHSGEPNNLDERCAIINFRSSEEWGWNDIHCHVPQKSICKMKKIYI

These binders were tested against BDCA-2 (CLEC4C, CD303) on human plasmacytoid dendritic cells (purified pDC or pDC within PBMC) (human) (UniProt Q8WTT0) (assay: flow cytometry on purified human pDC (FIG. 2)).

Row | binding | Binder
1 | binds | chimeric mAb 3E05 (parental mouse 3E05 VH/VL on human IgG1) (antibody, V domains shown) VH: EVKLVESGGGLVKPGGSLKLSCAASGFTFSSYTMSWVRQTPEKRLEWVAYISSGGGNTYYPDSVKGRFTISRDNARNTLYLQMSSLRSEDTAMYYCARHDYYDGGLYYAMDYWGQGTSVTVSS VL: DIVLTQSPASLAVSLGQRATISCKASQSVDYDGDSSMNWYQQKPGQPPKLLICAASTLESGIPARFSGSGSGTDFTLNIHPVEEEDAATYYCQQTNEDPPTFGGGTKLEIK
2 | binds | chimeric mAb 21E06 (antibody, human IgG1, V domains shown) VH: EVKLVESGGGLVKSGGSLKLSCEVSGFTFSSYTISWVRQTPEKRLEWVAYISSGGDNAYYPDSVKGRFTISRDNARNTLYLQMSSLRSEDTAMYYCARHLYYGDYFYVMDYWGQGTSVTVSS VL: DIVLTQSPASLAVSLGQRATISCKASQSVDYDGDNCLHWFQQKPGQPPKLLIYAASNLESGIPARFSGSGSGTDFTLNIHPVEEEDAATYYCQQSNEDPPTFGGGTKLEIK
3 | binds | chimeric mAb 25E06 (antibody, human IgG1, V domains shown) VH: EVKLVESGGGLVKPGGSLKLSCAASGFTFSSYTMSWVRQTPEKRLEWVAYISGVGGDTYYPDSVKGRFTISRDNARNTLYLQMSSLRSEDTAMFYCARHHYSHYFWYFDVWGAGTTVTVSS VL: DIVLTQSPASLAVSLGQRATISCKASQSVDYDGDGFMNWYQQKPGQPPKLLIYAASNLESGIPARFSGSGSGADFTLNIHPVEEEDAATYYCQQSNEDPPTFGGGTKLEIK

Each binder was assayed against BDCA-2 (CLEC4C, CD303) on human plasmacytoid dendritic cells (purified pDC or pDC within PBMC) (human) (UniProt Q8WTT0) (assay: flow cytometry on pDC (FIG. 5)).

Row | Binder | binding
4 | 3E05_var1 (antibody, human IgG1, V domains shown) VH: EVQLVESGGGLVKPGGSLRLSCAASGFTFSSYTMSWVRQAPGKGLEWVAYISSGGGNTYYPDSVKGRFTISRDNAKNSLYLQMNSLRAEDTAVYYCARHDYYDGGLYYAMDYWGQGTLVTVSS VL: DIVMTQSPDSLAVSLGERATINCKASQSVDYDGDSSMNWYQQKPGQPPKLLISAASTLESGVPSRFSGSGSGTDFTLTISSLQAEDVAVYYCQQTNEDPPTFGGGTKVEIK | binds
5 | 3E05_var3 (antibody, human IgG1, V domains shown) VH: EVQLVESGGGLVKPGGSLRLSCAASGFTFSSYTMSWVRQAPGKGLEWVAYISSGGGQTYYPDSVKGRFTISRDNAKNSLYLQMNSLRAEDTAVYYCARHDYYDGGLYYAMDYWGQGTLVTVSS VL: DIVMTQSPDSLAVSLGERATINCKASQSVDYDGDSSMNWYQQKPGQPPKLLISAASTLESGVPSRFSGSGSGTDFTLTISSLQAEDVAVYYCQQTNEDPPTFGGGTKVEIK | binds
6 | 3E05_var2 (antibody, human IgG1, V domains shown) VH: QVQLVESGGGLVKPGGSLRLSCAASGFTFSSYTMSWVRQAPGKGLEWVSYISSGGGNTYYADSVKGRFTISRDNAKNSLYLQMNSLRAEDTAVYYCARHDYYDGGLYYAMDYWGQGTLVTVSS VL: DIVMTQSPDSLAVSLGERATINCKASQSVDYDGDSSMNWYQQKPGQPPKLLISAASTLESGVPSRFSGSGSGTDFTLTISSLQAEDVAVYYCQQTNEDPPTFGGGTKVEIK | binds
7 | 3E05_var4 (antibody, human IgG1, V domains shown) VH: EVQLVESGGGLVKPGGSLRLSCAASGFTFSSYTMSWVRQAPGKGLEWVAYISSGGGQTYYPDSVKGRFTISRDNAKNSLYLQMNSLRAEDTAVYYCARHDYYEGGLYYAMDYWGQGTLVTVSS VL: DIVMTQSPDSLAVSLGERATINCKASQSVDYDGDSSMNWYQQKPGQPPKLLISAASTLESGVPSRFSGSGSGTDFTLTISSLQAEDVAVYYCQQTNEDPPTFGGGTKVEIK | binds
8 | 3E05_var8 (antibody, human IgG1, V domains shown) VH: EVQLVESGGGLVKPGGSLRLSCAASGFTFSSYTMSWVRQAPGKGLEWVAYISSGGGQTYYPDSVKGRFTISRDNAKNSLYLQMNSLRAEDTAVYYCARHDYYEGGLYYAMDYWGQGTLVTVSS VL: DIVMTQSPDSLAVSLGERATINCKSSQSVDYDGDSSMNWYQQKPGQPPKLLISAASTLESGVPSRFSGSGSGTDFTLTISSLQAEDVATYYCQQTNEDPPTFGGGTKVEIK | binds
9 | 3E05_var6 (antibody, human IgG1, V domains shown) VH: QVQLVESGGGLVKPGGSLRLSCAASGFTFSSYTMSWVRQAPGKGLEWVSYISSGGGNTYYADSVKGRFTISRDNAKNSLYLQMNSLRAEDTAVYYCARHDYYDGGLYYAMDYWGQGTLVTVSS VL: DIVMTQSPDSLAVSLGERATINCKSSQSVDYDGDSSMNWYQQKPGQPPKLLISAASTLESGVPSRFSGSGSGTDFTLTISSLQAEDVATYYCQQTNEDPPTFGGGTKVEIK | binds
10 | 3E05_var5 (antibody, human IgG1, V domains shown) VH: EVQLVESGGGLVKPGGSLRLSCAASGFTFSSYTMSWVRQAPGKGLEWVAYISSGGGNTYYPDSVKGRFTISRDNAKNSLYLQMNSLRAEDTAVYYCARHDYYDGGLYYAMDYWGQGTLVTVSS VL: DIVMTQSPDSLAVSLGERATINCKSSQSVDYDGDSSMNWYQQKPGQPPKLLISAASTLESGVPSRFSGSGSGTDFTLTISSLQAEDVATYYCQQTNEDPPTFGGGTKVEIK | binds
11 | 3E05_var9 (antibody, human IgG1, V domains shown) VH: EVQLVESGGGLVKPGGSLRLSCAASGFTFSSYTMSWVRQAPGKGLEWVAYISSGGGNTYYPDSVKGRFTISRDNAKNSLYLQMNSLRAEDTAVYYCARHDYYDGGLYYAMDYWGQGTLVTVSS VL: DIVMTQSPDSLAVSLGERATINCKSSQSVDYDGDSSMNWYQQKPGQPPKLLIYAASTLESGVPSRFSGSGSGTDFTLTISSLQAEDVATYYCQQTNEDPPTFGGGTKVEIK | binds
12 | 3E05_var7 (antibody, human IgG1, V domains shown) VH: EVQLVESGGGLVKPGGSLRLSCAASGFTFSSYTMSWVRQAPGKGLEWVAYISSGGGQTYYPDSVKGRFTISRDNAKNSLYLQMNSLRAEDTAVYYCARHDYYDGGLYYAMDYWGQGTLVTVSS VL: DIVMTQSPDSLAVSLGERATINCKSSQSVDYDGDSSMNWYQQKPGQPPKLLISAASTLESGVPSRFSGSGSGTDFTLTISSLQAEDVATYYCQQTNEDPPTFGGGTKVEIK | binds

Now from value to binder:

Row | binding | Binder
13 | binds | 3E05_var13 (antibody, human IgG1, V domains shown) VH: EVQLVESGGGLVKPGGSLRLSCAASGFTFSSYTMSWVRQAPGKGLEWVAYISSGGGNTYYPDSVKGRFTISRDNAKNSLYLQMNSLRAEDTAVYYCARHDYYDGGLYYAMDYWGQGTLVTVSS VL: DIVMTQSPDSLAVSLGERATINCKASQSVDYEGDSSMNWYQQKPGQPPKLLISAASTLESGVPSRFSGSGSGTDFTLTISSLQAEDVAVYYCQQTNEDPPTFGGGTKVEIK
14 | binds | 3E05_var11 (antibody, human IgG1, V domains shown) VH: EVQLVESGGGLVKPGGSLRLSCAASGFTFSSYTMSWVRQAPGKGLEWVAYISSGGGQTYYPDSVKGRFTISRDNAKNSLYLQMNSLRAEDTAVYYCARHDYYDGGLYYAMDYWGQGTLVTVSS VL: DIVMTQSPDSLAVSLGERATINCKSSQSVDYDGDSSMNWYQQKPGQPPKLLIYAASTLESGVPSRFSGSGSGTDFTLTISSLQAEDVATYYCQQTNEDPPTFGGGTKVEIK
15 | binds | 3E05_var10 (antibody, human IgG1, V domains shown) VH: QVQLVESGGGLVKPGGSLRLSCAASGFTFSSYTMSWVRQAPGKGLEWVSYISSGGGNTYYADSVKGRFTISRDNAKNSLYLQMNSLRAEDTAVYYCARHDYYDGGLYYAMDYWGQGTLVTVSS VL: DIVMTQSPDSLAVSLGERATINCKSSQSVDYDGDSSMNWYQQKPGQPPKLLIYAASTLESGVPSRFSGSGSGTDFTLTISSLQAEDVATYYCQQTNEDPPTFGGGTKVEIK
16 | binds | 3E05_var14 (antibody, human IgG1, V domains shown) VH: QVQLVESGGGLVKPGGSLRLSCAASGFTFSSYTMSWVRQAPGKGLEWVSYISSGGGNTYYADSVKGRFTISRDNAKNSLYLQMNSLRAEDTAVYYCARHDYYDGGLYYAMDYWGQGTLVTVSS VL: DIVMTQSPDSLAVSLGERATINCKASQSVDYEGDSSMNWYQQKPGQPPKLLISAASTLESGVPSRFSGSGSGTDFTLTISSLQAEDVAVYYCQQTNEDPPTFGGGTKVEIK
17 | binds | 3E05_var12 (antibody, human IgG1, V domains shown) VH: EVQLVESGGGLVKPGGSLRLSCAASGFTFSSYTMSWVRQAPGKGLEWVAYISSGGGQTYYPDSVKGRFTISRDNAKNSLYLQMNSLRAEDTAVYYCARHDYYEGGLYYAMDYWGQGTLVTVSS VL: DIVMTQSPDSLAVSLGERATINCKSSQSVDYDGDSSMNWYQQKPGQPPKLLIYAASTLESGVPSRFSGSGSGTDFTLTISSLQAEDVATYYCQQTNEDPPTFGGGTKVEIK
18 | binds | 3E05_var16 (antibody, human IgG1, V domains shown) VH: EVQLVESGGGLVKPGGSLRLSCAASGFTFSSYTMSWVRQAPGKGLEWVAYISSGGGQTYYPDSVKGRFTISRDNAKNSLYLQMNSLRAEDTAVYYCARHDYYEGGLYYAMDYWGQGTLVTVSS VL: DIVMTQSPDSLAVSLGERATINCKASQSVDYEGDSSMNWYQQKPGQPPKLLISAASTLESGVPSRFSGSGSGTDFTLTISSLQAEDVAVYYCQQTNEDPPTFGGGTKVEIK
19 | binds | 3E05_var15 (antibody, human IgG1, V domains shown) VH: EVQLVESGGGLVKPGGSLRLSCAASGFTFSSYTMSWVRQAPGKGLEWVAYISSGGGQTYYPDSVKGRFTISRDNAKNSLYLQMNSLRAEDTAVYYCARHDYYDGGLYYAMDYWGQGTLVTVSS VL: DIVMTQSPDSLAVSLGERATINCKASQSVDYEGDSSMNWYQQKPGQPPKLLISAASTLESGVPSRFSGSGSGTDFTLTISSLQAEDVAVYYCQQTNEDPPTFGGGTKVEIK

These binders were tested against BDCA-2 (CLEC4C, CD303) on human plasmacytoid dendritic cells (purified pDC or pDC within PBMC) (human) (UniProt Q8WTT0) (assay: flow cytometry, 10 ug/ml purified mAb on purified human pDC).

Row | binding | Binder
20 | binds | chimeric mAb 3E05 (parental mouse 3E05 VH/VL on human IgG1) (antibody, V domains shown) VH: EVKLVESGGGLVKPGGSLKLSCAASGFTFSSYTMSWVRQTPEKRLEWVAYISSGGGNTYYPDSVKGRFTISRDNARNTLYLQMSSLRSEDTAMYYCARHDYYDGGLYYAMDYWGQGTSVTVSS VL: DIVLTQSPASLAVSLGQRATISCKASQSVDYDGDSSMNWYQQKPGQPPKLLICAASTLESGIPARFSGSGSGTDFTLNIHPVEEEDAATYYCQQTNEDPPTFGGGTKLEIK
21 | binds | chimeric mAb 21E06 (antibody, human IgG1, V domains shown) VH: EVKLVESGGGLVKSGGSLKLSCEVSGFTFSSYTISWVRQTPEKRLEWVAYISSGGDNAYYPDSVKGRFTISRDNARNTLYLQMSSLRSEDTAMYYCARHLYYGDYFYVMDYWGQGTSVTVSS VL: DIVLTQSPASLAVSLGQRATISCKASQSVDYDGDNCLHWFQQKPGQPPKLLIYAASNLESGIPARFSGSGSGTDFTLNIHPVEEEDAATYYCQQSNEDPPTFGGGTKLEIK
22 | binds | chimeric mAb 25E06 (antibody, human IgG1, V domains shown) VH: EVKLVESGGGLVKPGGSLKLSCAASGFTFSSYTMSWVRQTPEKRLEWVAYISGVGGDTYYPDSVKGRFTISRDNARNTLYLQMSSLRSEDTAMFYCARHHYSHYFWYFDVWGAGTTVTVSS VL: DIVLTQSPASLAVSLGQRATISCKASQSVDYDGDGFMNWYQQKPGQPPKLLIYAASNLESGIPARFSGSGSGADFTLNIHPVEEEDAATYYCQQSNEDPPTFGGGTKLEIK
